Data reported in PubChem BioAssay AID1487 (National Center for Advancing Translational Sciences (NCATS), 2009).
Where “and” joins values, the source holds several entries; their conditions need not be identical. Equal values may be shown once. The list shows a part of the results. Shown are side measurements of this screen, not its main read-out; they come without a call. Most of these compounds were active or inconclusive in the main read-out, so they are no random draw. Words in brackets tell the shape of the fitted curve; partial curves, single points and poor fits give uncertain potencies.

Assay: qHTS Assay for Modulators of Lamin A Splicing
Conditions: HeLa LMNA splicing GFP/RFP minigene ratio, 48 h
Method in brief: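 S3 HeLa cells stably expressing lamin A-EGFP splicing minigene plus DsRed2, 600 cells/well, 48 h compound exposure at 37C. Laser-scanning cytometry; analysed as GFP (500-530 nm)/RFP (575-640 nm) total intensity ratio; 0.5% DMSO vehicle.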

[1] = measured here: GFP splicing reporter channel
[2] = measured here: RFP viability control channel

| SMILES | AC50 [1] | AC50 [2] |
| --- | --- | --- |
| COc1cc(SC)ccc1C(=O)NCCOc1c(C)cc(C)cc1C | 10 µM [rising, partial curve, poor fit] | – |
| Cc1csc(NC(=O)/C=C/c2ccc3c(c2)OCO3)n1 | 15.8 µM [rising, partial curve, poor fit] | 35.5 µM [rising, single point] |
| COc1ccc(-c2nc(CCNC(=O)c3cccs3)cs2)cc1 | 17.8 µM [rising, single point] and 17.8 µM [falling, partial curve, poor fit] | 22.4 µM [rising, single point] |
| COCCNC(=O)COC(=O)C1=Cc2ccccc2OC1 | 22.4 µM [rising, partial curve] | – |
| Cc1nn(C)c2c1c(-c1ccccc1)cc(=O)n2Cc1ccccc1Cl | 2.82 µM [rising, full curve, poor fit] | 7.08 µM [rising, partial curve] |
| S=C1NCCc2ccccc2C1c1ccccc1 (stereo not drawn) | – | 6.31 µM [rising, partial curve, poor fit] |
| CC1CCN(S(=O)(=O)c2ccc3c(ccc(=O)n3CC(=O)Nc3ccc(C(C)C)cc3)c2)CC1 | 0.0562 µM [falling, partial curve, poor fit] | 0.02 µM [falling, full curve, poor fit] |
| Cc1cc(C)c(S(=O)(=O)Nc2ccccc2-c2ccccc2)c(C)c1 | – | 35.5 µM [rising, single point] |
| C[C@H](Cc1ccccc1)Nc1ncnc2c1ncn2[C@@H]1O[C@H](CO)[C@H](O)[C@H]1O | 17.8 µM [rising, single point] | – |
| CCCOc1ccc(CCC(=O)O)cc1 | 0.794 µM [falling, single point] | 1.26 µM [falling, single point] |
| O=S(=O)(Nc1cc(Sc2cccc3cccnc23)c(O)c2ccccc12)c1ccccc1 | 1.12 µM [falling, full curve] | 2 µM [falling, partial curve] |
| COc1ccc(-c2c[n+](CC(=O)OC3CC(C)CCC3C(C)C)c3n2CCC3)cc1 (stereo not drawn) | – | 17.8 µM [rising, single point] |
| N#C/C(=C\c1ccncc1)c1nc2ccccc2c(=O)[nH]1 | 6.31 µM [falling, partial curve, poor fit] | – |
| CCOc1ccc(C(=O)CCN2CCCCC2)cc1 | – | 0.00355 µM [rising, full curve, poor fit] |
| CCC(C)c1ccc(OCCn2cc(/C=N/NC(=O)CSc3nnc(C)s3)c3ccccc32)cc1 (stereo not drawn) | – | 12.6 µM [rising, single point] |
| C[Se]CCC(N)C(=O)O (stereo not drawn) | 3.16 µM [falling, partial curve, poor fit] | – |
| COc1ccc2[nH]c(=O)c(CN(Cc3nnnn3CCc3ccccc3)CC3CCCO3)cc2c1 (stereo not drawn) | – | 3.55 µM [rising, single point] |
| Cc1ccc(CSCCNC(=O)c2ccc(C)cc2)cc1 | 35.5 µM [falling, single point] | – |
| COCCCNC(=O)c1oc2c(c1C)-c1nn(Cc3ccc(Cl)cc3)cc1CC2 | – | 15.8 µM [rising, single point] |

| SMILES | AC50 [1] | AC50 [2] |
| --- | --- | --- |
| O=C(COc1ccccc1)N1CCN(c2ccccc2)CC1 | 0.2 µM [rising, full curve, poor fit] | – |
| COC(=O)C1=C(C)N(c2ccc(F)c(Cl)c2)C(=O)C1 | – | 11.2 µM [rising, partial curve, poor fit] |
| O=C1/C(=C/c2ccccc2)N=C(N2CCOCC2)N1c1cccc(Cl)c1 | – | 31.6 µM [rising, single point] |
| CN(C)c1nc(C=C(C#N)C#N)c(Cl)n1-c1ccc(F)cc1 | 0.631 µM [falling, partial curve] | 5.01 µM [falling, full curve] |
| Cc1ccc(N(C(=O)c2nsc(Cl)c2Cl)C(C(=O)NC2CCCC2)c2ccc(O)cc2)cc1C (stereo not drawn) | – | 31.6 µM [rising, partial curve] |
| Cc1ccc(NC(=O)N2CCCC2C(=O)NCC2CCCO2)cc1 (stereo not drawn) | – | 6.31 µM [falling, full curve] |
| CCN(CC(=O)NC(C)C)C(=O)CCNC(=O)c1ccc(Cl)cc1 | 6.31 µM [falling, single point] | – |
| O=C(CSc1nc2nc(-c3cccs3)cc(C(F)(F)F)c2c(=O)[nH]1)Nc1ccc(F)c(F)c1 | – | 35.5 µM [rising, single point] |
| Cc1occc1-c1nnc(SCC(=O)N2CCN(c3ccc(F)cc3)CC2)n1C | – | 25.1 µM [rising, partial curve] |
| CCOc1ccc(CCNC(=O)Cn2c(=O)c3cccn3c3ccc(F)cc32)cc1OCC | 12.6 µM [rising, partial curve, poor fit] | 7.94 µM [rising, full curve, poor fit] |
| Cc1ccc(Cl)cc1-n1ncc2c(NCc3ccc(F)cc3)ncnc21 | – | 0.00501 µM [falling, full curve, poor fit] |
| CCOC(=O)N1CCN(C(=O)C2CCN(S(=O)(=O)c3ccc(F)cc3)CC2)CC1 | 2.82 µM [rising, single point] | – |
| COc1cc(NC(=S)NCCc2c[nH]c3ccccc23)c(OC)cc1Cl | 0.00355 µM [falling, full curve, poor fit] | – |
| O=C(Nc1ccccc1)c1ccccc1O | 12.6 µM [rising, single point] | 31.6 µM [rising, single point] |
| COc1ccc(Cc2nnc(NC(=O)C(C)(C)C)s2)cc1 | 4.47 µM [falling, full curve, poor fit] | – |
| CCOC(=O)CC(=O)CSc1ccc2nnc(-c3cccc(F)c3)n2n1 | – | 0.891 µM [rising, partial curve] |
| O=C(NC1CCCC1)C(c1ccccc1)N(Cc1ccc2c(c1)OCO2)C(=O)Cc1cccs1 (stereo not drawn) | – | 25.1 µM [rising, single point] |
| CC(=O)Nc1ccc(NC(=O)c2ccccc2Sc2ccc([N+](=O)[O-])cc2Cl)cc1 | – | 12.6 µM [rising, partial curve, poor fit] |
| CC12CCC(C(=O)N3CCC(Cc4ccccc4)CC3)(C(=O)C1=O)C2(C)C (stereo not drawn) | – | 10 µM [rising, partial curve] |

| SMILES | AC50 [1] | AC50 [2] |
| --- | --- | --- |
| COc1ccc(NC(=O)c2cccnc2SC)cc1OC | – | 1.58 µM [falling, full curve, poor fit] |
| Cc1onc(-c2c(Cl)cccc2Cl)c1C(=O)N/N=C(\N)COc1ccc(Cl)cc1 | – | 5.01 µM [rising, full curve] |
| CN(C)Cc1nc2c(c(=O)[nH]1)C1(CCCCC1)Cc1ccccc1-2 | – | 6.31 µM [falling, partial curve, poor fit] |
| COc1ccc(OC)c(CNC(=O)CCc2nc(-c3cccs3)no2)c1 | 5.62 µM [rising, single point] | – |
| CCOCCCNC(=S)N(Cc1ccco1)Cc1cc2cc3c(cc2[nH]c1=O)OCCO3 | 7.08 µM [falling, partial curve, poor fit] | 3.55 µM [falling, partial curve] |
| COc1cccc(C(=O)Nc2cc(-c3cn4cccnc4n3)ccc2C)c1 | 6.31 µM [rising, full curve] | 7.08 µM [rising, full curve, poor fit] |
| N#Cc1nc(COc2ccccc2Cl)oc1NCc1ccc(F)cc1 | 35.5 µM [rising, single point] | 31.6 µM [rising, single point] |
| O=C1C2C3C=CC(C2C(=O)N1c1ccccc1O)C1C2C(=O)N(c4ccccc4O)C(=O)C2C31 (stereo not drawn) | 0.0447 µM [falling, full curve, poor fit] | – |
| C/C(=N\NC(=O)COc1ccccc1)c1cccs1 | 12.6 µM [rising, single point] | – |
| Cc1ccc2c(=O)oc(N(C)C)nc2c1 | 0.891 µM [falling, full curve, poor fit] | 0.891 µM [falling, full curve] |
| C=COCCNC(=O)C1CC(=O)N(c2ccc(C)cc2)C1 (stereo not drawn) | – | 3.98 µM [falling, single point] |
| Cc1cccc(-c2nnn3c2nc(NCCc2ccc(S(N)(=O)=O)cc2)c2ccccc23)c1 | – | 0.0224 µM [rising, full curve, poor fit] |
| CCOC(=O)Cc1csc(SCC(=O)c2c(N)n(CC(C)C)c(=O)n(C)c2=O)n1 | 5.01 µM [rising, partial curve] | – |
| COC(=O)c1cc(OC)c(OC)cc1NCC(=O)Nc1ccc(OC)c(OC)c1 | 22.4 µM [rising, single point] | 0.447 µM [rising, single point] |
| Cc1ccc2c(c1)C=CC(C#N)N2C(=O)c1ccccc1 (stereo not drawn) | 2.51 µM [rising, single point] | 3.16 µM [rising, partial curve] |
| C#C[C@@]1(OC(C)=O)CC[C@@H]2[C@@H]3CCC4=C[C@@H](OC(C)=O)CC[C@H]4[C@H]3CC[C@]21C | 14.1 µM [falling, single point] | 10 µM [falling, single point] |
| Cc1cc(Cl)ccc1OCC(=O)N1CCCN(C(=O)COc2ccc(Cl)cc2C)CC1 | 31.6 µM [rising, single point] | 31.6 µM [rising, single point] |
| COc1ccc(N2CCN(C(=O)c3ccc(NS(=O)(=O)c4ccccc4)cc3)CC2)cc1 | – | 22.4 µM [rising, single point] |

Full records, quoted from the list. Order of values: AC50 [1]	AC50 [2]
CCOc1ccc(CCNC(=O)Cn2c(=O)c3cccn3c3ccc(F)cc32)cc1OCC in the list: 12.6 µM [rising, partial curve, poor fit]	7.94 µM [rising, full curve, poor fit]
O=C1/C(=C/c2ccccc2)N=C(N2CCOCC2)N1c1cccc(Cl)c1 in the list: –	31.6 µM [rising, single point]
C[Se]CCC(N)C(=O)O (stereo not drawn) in the list: 3.16 µM [falling, partial curve, poor fit]	–
COc1cccc(C(=O)Nc2cc(-c3cn4cccnc4n3)ccc2C)c1 in the list: 6.31 µM [rising, full curve]	7.08 µM [rising, full curve, poor fit]
